According to PubChem BioAssay AID192 (DTP/NCI, 2004):
The list is a part of this screen's results and no random one: it gathers tests that were run many times, whatever their T/C, doses with no T/C, and many T/C values between a quarter and a half above the control. Further doses and runs are listed elsewhere. T/C: endpoint of the treated group in % of that of the vehicle group. Some entries give survivors of the animals treated and no T/C: the source holds a T/C of zero for them, seemingly a mark for toxic or unscored doses. Some doses without a T/C left all or most animals alive at the check, yet need not have been tolerated: survival well below the control is almost never listed, so the zero probably covers shortened survival too. Counts of survivors are from the toxicity check (mostly the fifth day) where no day follows; animals may have died later. Schedules are NCI's codes, read here as Q, the interval in days (D) or hours (H), X, the number of doses. Some entries were tested several times; the values are given in rising order. Some molecules as drawn cover several salts, stereoisomers or complexes of the source; a dose is that of the sample tested. For survival time, the PubChem record calls one and a half times the control and up active, and a quarter to a half above the control has no call in these data; cut-offs in other NCI protocols can differ. Additions like (4×) give the number of equal values in this list.

System: BDF1 mice, B16 melanoma ip, median survival T/C
Test: NCI In Vivo Anticancer Drug Screen. Data for tumor model B16 Melanoma (intraperitoneal) in B6D2F1 (BDF1) mice
Conditions: T/C endpoint: median survival time, higher T/C = longer survival
How it was run: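 Each result divides a survival or tumor-size measurement in the compound-treated group by the same measurement in the vehicle group.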

[1] = dose: 25.0 mg/kg/injection, schedule: Q01DX009 (ip), vehicle: saline with Tween-80
[2] = dose: 50.0 mg/kg/injection, schedule: Q01DX009 (ip), vehicle: saline with Tween-80
[3] = dose: 100.0 mg/kg/injection, schedule: Q01DX009 (ip), vehicle: saline with Tween-80
[4] = dose: 400.0 mg/kg/injection, schedule: Q01DX009 (ip), vehicle: saline with Tween-80
[5] = dose: 12.5 mg/kg/injection, schedule: Q01DX009 (ip), vehicle: saline with Tween-80
[6] = dose: 200.0 mg/kg/injection, schedule: Q01DX009 (ip), vehicle: saline
[7] = dose: 400.0 mg/kg/injection, schedule: Q01DX009 (ip), vehicle: saline
[8] = dose: 50.0 micrograms/kg/injection, schedule: Q01DX009 (ip), vehicle: saline + alcohol
[9] = dose: 100.0 mg/kg/injection, schedule: Q01DX009 (ip), vehicle: Klucel (hydroxypropylcellulose) (HPC)
[10] = dose: 12.5 mg/kg/injection, schedule: Q01DX009 (ip), vehicle: Klucel (hydroxypropylcellulose) (HPC)
[11] = dose: 400.0 mg/kg/injection, schedule: Q01DX009 (ip), vehicle: Klucel (hydroxypropylcellulose) (HPC)
[12] = dose: 0.05 mg/kg/injection, schedule: Q01DX009 (ip), vehicle: other

Structure (SMILES): C[CH2][Ge]([CH2]C)[CH2]C.C[CH2][Ge]([CH2]C)[CH2]C.C[CH2][Ge]([CH2]C)[O][Ge]([CH2]C)[CH2]C
- survivor count [1]: 10 of 10
- survivor count [2]: 10 of 10
- survivor count [3]: 10 of 10
- survivor count (dose: 200.0 mg/kg/injection, schedule: Q01DX009 (ip), vehicle: saline with Tween-80): 0 of 10 and 8 of 10
- survivor count [4]: 0 of 10

Structure (SMILES): C=C1C(=O)C23[C@H](O)C1CC[C@H]2[C@]12COC3(O)[C@@H](O)[C@@H]1C(C)(C)CC[C@@H]2O
- survivor count [5]: 9 of 10
- survivor count [1]: 7 of 10
- survivor count [2]: 2 of 10

Structure (SMILES): O=C1C=CN(C2OC(CO)C(O)C2O)C(=O)C1 (stereo not drawn)
- T/C [6]: 125 % of control
- survivor count (dose: 400.0 mg/kg/injection, schedule: Q01DX009 (ip), vehicle: saline sonified): 6 of 6
- survivor count [7]: 10 of 10

Structure (SMILES): COc1cc2cc(c1Cl)N(C)C(=O)CC(OC(=O)CC(C)C)C1(C)OC1C(C)C1CC(O)(NC(=O)O1)C(OC)/C=C/C=C(C)C2 (stereo not drawn)
- T/C (dose: 4.0 micrograms/kg/injection, schedule: Q01DX009 (ip), vehicle: saline + alcohol): 138 % of control
- T/C (dose: 6.2 micrograms/kg/injection, schedule: Q01DX009 (ip), vehicle: saline + alcohol): 138 % of control
- T/C (dose: 7.0 micrograms/kg/injection, schedule: Q01DX009 (ip), vehicle: saline + alcohol): 148 % of control
- T/C [8]: 129 % of control
- survivor count [8]: 10 of 10
- survivor count (dose: 100.0 micrograms/kg/injection, schedule: Q01DX009 (ip), vehicle: saline + alcohol): 8 of 10 and 10 of 10
- survivor count (dose: 200.0 micrograms/kg/injection, schedule: Q01DX009 (ip), vehicle: saline + alcohol): 3 of 10 and 5 of 10

Structure (SMILES): CCCC(=O)OC1C=C2N3C(=O)C4CC56C(=CC(OC(C)=O)C7OC75)N4C(=O)C3CC26C2OC12 (stereo not drawn)
- survivor count (dose: 1.0 mg/kg/injection, schedule: Q01DX009 (ip), vehicle: Klucel (hydroxypropylcellulose) (HPC)): 10 of 10
- survivor count (dose: 2.0 mg/kg/injection, schedule: Q01DX009 (ip), vehicle: Klucel (hydroxypropylcellulose) (HPC)): 10 of 10

Structure (SMILES): CCCCCCCCCCCCCCP(I)(N(C)C)(N(C)C)N(C)C
- survivor count (dose: 0.75 mg/kg/injection, schedule: Q01DX009 (ip), vehicle: saline with Tween-80): 10 of 10
- survivor count (dose: 1.5 mg/kg/injection, schedule: Q01DX009 (ip), vehicle: saline with Tween-80): 0 of 10
- survivor count (dose: 3.0 mg/kg/injection, schedule: Q01DX009 (ip), vehicle: saline with Tween-80): 5 of 10

Structure (SMILES): O=C1N(Cl)C(=O)C(c2ccc(Cl)cc2)(c2ccc(Cl)cc2)N1Cl
- survivor count (dose: 50.0 mg/kg/injection, schedule: Q01DX009 (ip), vehicle: Klucel (hydroxypropylcellulose) (HPC)): 9 of 10
- survivor count [9]: 9 of 10

Structure (SMILES): NC(CCl)=NCC12CC3CC(CC(C3)C1)C2
- T/C (dose: 6.25 mg/kg/injection, schedule: Q01DX009 (ip), vehicle: Klucel (hydroxypropylcellulose) (HPC)): 134 % of control
- T/C [10]: 133 % of control

Structure (SMILES): CC1C=C(Br)C(=O)c2ccccc2N1S(C)(=O)=O (stereo not drawn)
- survivor count (dose: 75.0 mg/kg/injection, schedule: Q01DX009 (ip), vehicle: Klucel (hydroxypropylcellulose) (HPC)): 1 of 10
- survivor count (dose: 150.0 mg/kg/injection, schedule: Q01DX009 (ip), vehicle: Klucel (hydroxypropylcellulose) (HPC)): 0 of 10
- survivor count (dose: 300.0 mg/kg/injection, schedule: Q01DX009 (ip), vehicle: Klucel (hydroxypropylcellulose) (HPC)): 0 of 10

Structure (SMILES): CCC1CCCCN1C(=S)N/N=C(\C)c1ccccn1 (stereo not drawn)
- survivor count [1]: 7 of 10
- survivor count [2]: 6 of 10
- survivor count [3]: 4 of 10

Structure (SMILES): O=C1C(NCC(O)CO)=C(N2CC2)C(=O)C(NCC(O)CO)=C1N1CC1 (stereo not drawn)
- survivor count (dose: 0.5 mg/kg/injection, schedule: Q01DX009 (ip), vehicle: saline): 9 of 10

Structure (SMILES): CC(=O)Oc1cc2c3c(c1)CCCN3CCC2
- survivor count [5]: 8 of 10
- survivor count (dose: 125.0 micrograms/kg/injection, schedule: Q01DX009 (ip), vehicle: saline with Tween-80): 10 of 10

Structure (SMILES): COc1ccc(N=NN(C(C)=O)c2ccccc2)cc1
- survivor count [11]: 9 of 10

Structure (SMILES): Cc1cccc(C)c1NC(=O)c1ccc(Cl)cc1Cl
- survivor count (dose: 200.0 mg/kg/injection, schedule: Q01DX009 (ip), vehicle: Klucel (hydroxypropylcellulose) (HPC)): 10 of 10
- survivor count [11]: 10 of 10

Structure (SMILES): CNC(=S)N/N=C/c1ccc([N+](=O)[O-])s1
- survivor count [4]: 10 of 10

Structure (SMILES): CN1CCN=C(c2ccccc2)c2cc(Cl)ccc21
- survivor count [6]: 0 of 10
- survivor count [7]: 0 of 10

Structure (SMILES): NC(Cn1ccc(=O)c(O)c1)C(=O)O (stereo not drawn)
- survivor count [7]: 9 of 10
- survivor count (dose: 600.0 mg/kg/injection, schedule: Q01DX007 (ip), vehicle: saline with Tween-80): 9 of 10
- survivor count (dose: 800.0 mg/kg/injection, schedule: Q01DX009 (ip), vehicle: saline): 8 of 10
- survivor count (dose: 1200.0 mg/kg/injection, schedule: Q01DX009 (ip), vehicle: saline): 4 of 10
- survivor count (dose: 1600.0 mg/kg/injection, schedule: Q01DX009 (ip), vehicle: saline): 2 of 10

Structure (SMILES): CCOC(=O)C(C(=O)COC)C(=O)OCC
- survivor count (dose: 200.0 mg/kg/injection, schedule: Q01DX009 (ip), vehicle: water): 8 of 8

Structure (SMILES): COc1ccc(N=Cc2ccc(C=Nc3ccc(OC)cc3)cc2)cc1
- survivor count [9]: 10 of 10

Structure (SMILES): FC(F)(F)c1cc(CN(CCCl)CCCl)cc(C(F)(F)F)c1
- survivor count (dose: 50.0 mg/kg/injection, schedule: Q01DX009 (ip), vehicle: saline): 10 of 10
- survivor count (dose: 100.0 mg/kg/injection, schedule: Q01DX009 (ip), vehicle: saline): 10 of 10

Structure (SMILES): CC(=O)Nc1c(Cl)c(Cl)c2c(c1Cl)Cc1cc(Br)ccc1-2
- survivor count [1]: 6 of 6
- survivor count [2]: 6 of 6

Structure (SMILES): N=[N+]=CC(=O)CCC(NC(=O)C(CCC(=O)C=[N+]=N)NC(=O)CCC(N)C(=O)O)C(=O)O (stereo not drawn)
- T/C [12]: 93 and 106 % of control (2×)
- survivor count [12]: 6 of 6
- survivor count (dose: 0.1 mg/kg/injection, schedule: Q01DX009 (ip), vehicle: Klucel (hydroxypropylcellulose) (HPC)): 10 of 10
- T/C (dose: 0.1 mg/kg/injection, schedule: Q01DX009 (ip), vehicle: other): 88, 100, 106 % of control (2×)
- survivor count (dose: 0.2 mg/kg/injection, schedule: Q01DX009 (ip), vehicle: other): 6 of 6
- T/C (dose: 0.2 mg/kg/injection, schedule: Q01DX009 (ip), vehicle: saline): 125 % of control
- survivor count (dose: 0.4 mg/kg/injection, schedule: Q01DX009 (ip), vehicle: other): 6 of 6
- survivor count (dose: 0.4 mg/kg/injection, schedule: Q01DX009 (ip), vehicle: saline): 6 of 6
- survivor count (dose: 0.5 mg/kg/injection, schedule: Q01DX009 (ip), vehicle: other): 5 of 6 and 6 of 6
- survivor count (dose: 0.6 mg/kg/injection, schedule: Q01DX009 (ip), vehicle: other): 6 of 6
- survivor count (dose: 0.8 mg/kg/injection, schedule: Q01DX009 (ip), vehicle: other): 6 of 6
- survivor count (dose: 20.0 mg/kg/injection, schedule: Q04DX003 (ip), vehicle: other): 6 of 6
- survivor count (dose: 40.0 mg/kg/injection, schedule: Q04DX003 (ip), vehicle: other): 6 of 6

Structure (SMILES): Nc1ncnc2c1ncn2Cc1ccccc1
- survivor count [10]: 6 of 6
- survivor count (dose: 25.0 mg/kg/injection, schedule: Q01DX009 (ip), vehicle: Klucel (hydroxypropylcellulose) (HPC)): 6 of 6
